# Test results reported in PubChem BioAssay AID2586 (Broad Institute, 2010).
# The list shows a part of the results. Results with a measured potency or affinity are listed apart. Entries without a call are filed as inconclusive in the source.
# Assay: NIH3T3 cytotoxicity counter-screen, ATP luminescence readout, 384-well dose-response, secondary stage (AID 2586)
# Conditions: NIH3T3 viability, ATP luminescence (CellTiter-Glo), 90 h; at 19.5 µM (top of the series)
structure (smiles),measurement,value
CC1CCCN(C(=O)Cc2cn(Cc3cccc(Cl)c3)c3ccccc23)C1 (stereo unspecified),"activity change, negative = cytotoxic",9.1
